Primary screen of a compound library

Measurements from “University of Dundee, Small-Polar-MMV Screening Library” (2021), ChEMBL document CHEMBL3988442.

Results are given as percent effect.
The record does not define 0% and 100%; most values in the screen are far below 50% and negative numbers occur (in some assays of this library far below -100).
This is an unselected part of the compounds tested.
Two or more numbers in one place are separate tests of the same structure; such repeats can differ widely.

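Whole-cell growth test on Mycobacterium tuberculosis, read after 4 days in a medium based on cholesterol and the lipid DPPC; the read-out is not stated. Compounds at 50 µM. Direction is inferred from retests: higher values go with more growth inhibition. About 69,000 compounds were tested under these conditions; 0.54% (about 370) showed 50% or more at least once.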

| structure | effect |
|---|---|
| `O=C(COCC(F)(F)C(F)F)N1CCC2(CCCN(CCO)C2=O)C1` (centres undefined) | -7.012% |
| `CCC(C(=O)NCc1ccncc1)N(c1cccc(C)c1)S(C)(=O)=O` (centres undefined) | -2.597% |
| `CC(C)CN1CCn2c(COCc3cccnc3)nnc2C1.O=C(O)C(F)(F)F.O=C(O)C(F)(F)F` | 4.096% |
| `N#Cc1ccc(NC2CCN(c3ncccn3)CC2)cc1C(F)(F)F` | 67.39% |
| `O=C(CN(CC(O)c1ccc(F)cc1)C1CC1)NCc1cccs1` (centres undefined) | -5.08% |
| `CCOC(=O)CNC(=O)NCc1cccn1Cc1ccc(F)cc1` | -17.39% |
| `Cc1cc(CN2CCC(CNC(=O)c3cnc(C)nc3C)C2)[nH]n1` (centres undefined) | -4.188% and -0.8649% |
| `FC(F)(F)c1ccccc1CN1CCOC[C@H](Oc2cccnc2)C1` | 36.48% |
| `CC(O)CN(Cc1cccc(C(N)=O)c1)c1ccccc1` (centres undefined) | 2.927% |
| `[H][C@@]12CC[C@H](Oc3ccccc3F)[C@]1([H])CN(C(=O)c1cnco1)C2` | -20.74% |
| `Nc1nccc(-c2cccc3ccnn23)n1` | -26.3% |
| `Cc1noc(C)c1-c1cc(CCC2CN(C(=O)C(C)C)CCO2)ncn1` (centres undefined) | -3.276% and 17.24% |
| `Cc1sc2nc(CCN)nc(N(C)CCCC3CCCO3)c2c1C` (centres undefined) | -9.56% |
| `Cc1cccnc1NC(=O)CSc1ccc2c(c1)OCCO2` | -17.51% |
| `Cc1nccn1CCN(C)C(=O)c1cn(CC2CCCCC2)nn1` | -8.866% |
| `O=C(NC1CCCC1)c1nc2c(o1)CN(C(=O)CO)C2` | 7.743% |
| `Fc1ccc(C2(NCc3noc(C4CC4)n3)CCC2)cc1` | 8.96% |
| `CC(=O)N1CCCC(c2ccc(CO)c(-c3c(C)noc3C)n2)C1` (centres undefined) | -11.74% and 14.17% |
| `Cc1nccn1-c1ccc(CNC(=O)c2ccc[nH]2)cn1` | 3.97% and -1.009% |
| `c1ccc(O[C@H]2COCCN(Cc3cccc4c3OCO4)C2)cc1` | 12.16% |
| `NC(=O)Nc1cccc(F)c1C(=O)NC1CCCC1` | -11.58% |
| `CCOc1ccc(C(=O)Nc2ccn(CC)n2)cc1` | -9.256% |
| `O=C(CCN1CCc2ccccc21)N1C[C@@H](O)[C@H](N2CCOCC2)C1` | 0.0176% |
| `[H][C@@]12OCCN(C(=O)C3=CCCC3)[C@@]1([H])CC[C@@H]2OCC1CC1` | 18.36% |
| `O=C(O)C(F)(F)F.OCCOCc1ncn2c1CN(Cc1cccs1)CCC2` | -16.05% |
| `CO[C@@H]1CC[C@@H](NS(=O)(=O)c2cn(C)nc2C)[C@H]1O` | -1.076% and 0.2844% |
| `Cn1c(-c2ccccc2Cl)nc2cc(C(=O)NC(CO)CO)cnc21` | 9.532% |
| `C=C(C)COc1cccc(C(=O)N(C)C(C)c2ccncn2)c1` (centres undefined) | 4.52% |
| `CC(C(=O)N1CCN(c2ccc(F)cc2)CC1)n1ccnc1` (centres undefined) | -7.448% |
| `Cc1cnc2c(S(=O)(=O)NCC3CCN(C4CC4)C3)cccc2c1` (centres undefined) | 3.923% |
| `Fc1ccc(CNc2ccccc2Cn2cncn2)cc1` | 22.49% |
| `C[C@]1(O)CCN(Cc2c[nH]cn2)C[C@@H]1Oc1cccc(F)c1` | 2.771% |
| `O=C(O)C(F)(F)F.[H][C@@]12CCN(c3cccc(F)c3)C[C@@]1([H])O[C@@H](C(=O)N1CCCCO1)C2` | 6.918% |
| `Cc1cnc(CN(C)C2CCCN(Cc3noc(C4CC4)n3)C2)cn1` (centres undefined) | -31.04% |
| `O=C(c1ccncc1)N1CCC2(COc3ncccc3S(=O)(=O)N2)C1` (centres undefined) | -0.7947% |
| `COCCNc1nc(C2CCCC2)nc2c1CCNCC2` | 28.41% |
| `Cl.Cl.c1cnc(NCc2cncc3c2CCN(Cc2cccs2)C3)nc1` | -6.24% |
| `CS(=O)(=O)Cc1nc(CNc2ccc(F)c(F)c2)cs1` | 11.8% |
| `CCN(CC)S(=O)(=O)c1ccc(OC)c(NC(=O)CSC)c1` | -10.3% |
| `Cc1ccc(C(=O)N(Cc2cccc(F)c2)C2CC2)c(=O)[nH]1` | -10.6% |
| `CCc1nc(C2CCCN(C(=O)c3ccc4c(c3)nnn4C)C2)no1` (centres undefined) | 21.57% |
| `CC(C)(C)c1n[nH]c(C2CN(C(=O)c3cc(C4CC4)on3)CCO2)n1` (centres undefined) | 7.996% |
| `CCCC(=O)Nc1cccc(C(=O)N(C)CCCC2CCCO2)c1` (centres undefined) | -14.45% |
| `Cl.O=C(C1CC1)N1CCOC2(CCNCC2)C1` | 2.914% |
| `COC(C)C(=O)NS(=O)(=O)c1ccc(F)c(C(F)(F)F)c1` (centres undefined) | 8.088% |
| `CCNC(=O)N1CCC2(CC1)CCn1c(C3CC3)cnc12` | -28.19% |
| `O=C(NCCN1CCCCC1CO)c1cc(-c2ccccc2)on1` (centres undefined) | 14.76% |
| `CC(=O)N1CCC(NC(=O)c2cc(S(N)(=O)=O)ccc2C)CC1` | -14.03% |
| `CC(C)Oc1cc(N2C[C@H](C3CC3)[C@@H](N)C2)nc(N)n1` | -13.44% |
| `COc1ccc(Cl)cc1CC(=O)NS(=O)(=O)c1ccc(C(N)=O)cc1` | -6.36% |
| `CCCN(Cc1nc(-c2ccc(F)c(OC)c2)oc1C)CC1CCCO1` (centres undefined) | 21.16% |
| `O=C1CN(c2cc(-c3ccccc3F)nc3ccnn23)CCCN1` | -4.635% |
| `Cn1cc(CC(CNC(=O)Nc2cccc(Cl)c2)C(N)=O)cn1` (centres undefined) | 2.745% |
| `[H][C@@]12COC[C@]1(c1nc(C)no1)CN(S(=O)(=O)C1CC1)C2` | 5.758% |
| `COc1ccccc1CC(=O)NCCCN1CCCC1C(=O)N(C)C` (centres undefined) | 10.86% |
| `CCN(CC1CCOCC1)C(=O)CCNC(=O)c1ccccc1F` | -0.2011% |
| `CC(C(=O)NC1CC1)S(=O)(=O)c1cc2c(cc1Cl)OCCO2` (centres undefined) | -9.506% |
| `CN(Cc1ccc2c(c1)OCO2)C(=O)Cn1cccnc1=O` | -8.633% |
| `CCCn1nc(C)c2c1NC(=O)CC2c1ccc(CN2CCCC2)s1` (centres undefined) | 2.027% |
| `[H][C@@]12COC[C@]1([H])[C@@H](OCc1cccnc1)CN2C(=O)c1ccc(C#N)cc1` | -13.21% |
| `Cc1ccc(OCC(=O)NS(=O)(=O)c2cccnc2)cc1C` | -40.83% |
| `CC1(C)CN(Cc2csc(CS(C)(=O)=O)n2)Cc2ccccc21` | 0.7163% |
| `[H][C@@]12CN(C(=O)c3cnccn3)C[C@@]1([H])N(CC1CCCC1)C(=O)CO2` | -1.582% |
| `CCOCCN1CCN([C@@H]2c3ccccc3C3(CCNCC3)[C@H]2O)CC1` | 1.498% |
| `CCSc1cc(C(=O)N(Cc2cnn(C)c2)C(C)C)ccn1` | 18.27% |
| `c1cn(-c2ccc(N3CCC(NC4CC4)CC3)cc2)cn1` | 4.943% |
| `O=C(NCCOc1ccc2c(c1)OCO2)N1CCCC(CO)C1` (centres undefined) | -1.996% |
| `Cc1cc2nc(CO[C@H]3CN(C4CCCCC4)C[C@H]3F)[nH]c2cc1C` | -7.569% |
| `CCCC(=O)NCCc1cc(N2CCN(C(C)=O)CC2)nc(C2CC2)n1` | -3.319% |
| `CC(C)[C@]1(O)CN(C(=O)CNC(N)=O)C[C@H]1C` | -7.151% and 1.815% |
| `Cc1cnn(CC2CCCCN2C(=O)c2c(C)noc2C)c1` (centres undefined) | -26.62% |
| `O=C(c1nnn(-c2ccccc2)n1)N(CCO)CCO` | -6.826% |
| `Cn1cc(CNc2cnn(CC3CCCO3)c2)c(-c2ccncc2)n1` (centres undefined) | -26.12% |
| `[H][C@]12CCN(Cc3ccc(OCC)c(CO)c3)C[C@]([H])(CC1)N2` | 15.63% |
| `CCn1nc(C)c2nc(C)nc(NCCc3ccc(C)cc3)c21` | 42.57% |
| `CC(Cn1cccn1)NC(=O)NCc1cccnc1OC1CCCC1` (centres undefined) | -1.81% |
| `O=S(=O)(c1ccc(Cl)s1)N1CCCC(c2ncc[nH]2)C1` (centres undefined) | 7.988% and 3.105% |
| `Cc1cn2nc(N3CCN(Cc4nc(C(C)C)no4)CC3)sc2n1` | -2.003% |
| `Cc1cccc2sc(NC(=O)CN3CCCC4(CC3)CNC(=O)O4)nc12` (centres undefined) | -0.9901% |
| `O=C(NC[C@H]1OC[C@@H](NCc2ccccn2)[C@@H]1O)c1ccc(F)cc1` | -32.35% |
| `CC(C)(C)Oc1ccc(C(=O)N2CCOCC2c2ncon2)cc1` (centres undefined) | -16.19% |
| `CC(C)c1noc(CCC(=O)NC(C)c2nnc3n2CCCCC3)n1` (centres undefined) | 6.321% |
| `Clc1cc(NCc2nccs2)nc2[nH]ccc12` | -3.702% |
| `[H][C@@]12C[C@H](C)O[C@]1([H])CCN(C(=O)CCOc1ccccc1)C2` | -8.861% and -7.095% |
| `COCc1cc(C[C@@H]2CC[C@H](O)[C@@H](CN(CC(C)C)CC(C)C)O2)no1` | -15.33% |